The experiment addresses Isocitrate Dehydrogenase-1 (IDH1), native mouse protein of splenocyte lysates (mouse (endogenous in splenocytes)) (UniProt O88844). Description: co-IP; anti-IDH1 immunoprecipitation of native IDH1 from surface-biotinylated mouse splenocyte lysates (wild-type or CD8β-deficient); protein G agarose; blots with streptavidin or anti-CD8α (2.43); reducing conditions.

Amino acid sequences for entries named in this document (tags omitted). Residues count along the entry.
UniProt O88844: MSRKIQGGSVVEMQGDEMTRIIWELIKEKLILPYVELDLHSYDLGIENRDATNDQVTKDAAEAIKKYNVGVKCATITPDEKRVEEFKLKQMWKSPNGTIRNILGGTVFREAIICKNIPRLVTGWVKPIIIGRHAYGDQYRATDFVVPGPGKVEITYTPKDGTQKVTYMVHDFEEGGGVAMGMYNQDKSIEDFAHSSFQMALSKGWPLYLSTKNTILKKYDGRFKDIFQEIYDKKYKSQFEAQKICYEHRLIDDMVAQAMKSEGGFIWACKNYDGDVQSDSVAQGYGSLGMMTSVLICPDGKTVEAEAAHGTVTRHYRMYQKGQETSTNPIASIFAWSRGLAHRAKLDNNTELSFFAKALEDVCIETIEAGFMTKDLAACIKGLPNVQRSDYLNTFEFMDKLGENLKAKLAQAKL
UniProt P01731, residues 28-247: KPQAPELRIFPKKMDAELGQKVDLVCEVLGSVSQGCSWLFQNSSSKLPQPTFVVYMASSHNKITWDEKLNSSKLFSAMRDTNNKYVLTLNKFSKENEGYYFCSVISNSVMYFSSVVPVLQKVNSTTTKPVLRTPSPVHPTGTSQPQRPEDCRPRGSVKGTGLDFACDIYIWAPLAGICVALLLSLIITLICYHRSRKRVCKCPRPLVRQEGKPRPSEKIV

These are yes or no findings as the source states them, for the method shown. Binding seen in cells or lysates may run through a third protein. Some entries that bind do so weakly or less than the wild type.

Regarding “CD8αα dimer, mouse, from CD8β-deficient splenocytes (from UniProt P01731 28-247) (complex)”, the binding entry is on record as “binds”.

Source of the values: PMC10275753.
